Out of some 330,000 compounds screened, about 7,700 (2.3%) were called active. This list was built around the results that the source calls inconclusive (neither active nor inactive); the mix of calls is not that of the screen. Calls follow the shape of the dose curve; as a rule, active = well fitted inhibition curve with a large enough effect; inconclusive = small, poorly fitted or top-dose-only effect, or effect the other way; inactive = flat fitted curve, though single readings scatter. Where the call is inconclusive, the potency comes from a doubtful curve fit.
Assay: qHTS screen for small molecules that inhibit ELG1-dependent DNA repair in human embryonic kidney (HEK293T) cells expressing luciferase-tagged ELG1; also: nearly all actives have a fitted effect of over 55% in size
Settings: HEK293T ELG1-luciferase reporter, luminescence, 16 h, DNA damage induced by 5-fluorouridine; series mostly up to 46.1 µM
How it was run: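 5-Fluorouridine DNA damage + compound/DMSO, 2,000 cells/well, 16 h, 37 °C/5% CO2. ONE-Glo, 30 min RT, luminescence. Readout = decrease in reporter signal.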
Potency is read from the fitted curve at half-maximal effect.

SMILES | Potency
COc1ccc(-c2ccc(/C=C3/C(=N)N4C=CSC4=NC3=O)o2)c([N+](=O)[O-])c1 | inconclusive: 29.1 µM [inhibitor, single point]
NC(=O)C1CCN(c2nc(-c3ccccc3-c3ccccc3)cs2)CC1 | inconclusive: 29.1 µM [activator, partial curve, poor fit]
CCOc1ccc(NC(=O)Cn2cncc2-c2ccc([N+](=O)[O-])cc2)cc1 | inconclusive: 20.6 µM [activator, partial curve, poor fit]
CCOC(=O)Cn1cnc2scc(-c3ccc(C)cc3)c2c1=O | inactive
COc1cc(/C=C2/C(=N)N3C=CSC3=NC2=O)ccc1OCCCOc1ccccc1C | inconclusive: 12.6 µM [activator, partial curve, poor fit]
c1ccc(CNc2ncnc3sc4c(c23)CCC4)nc1 | inconclusive: 16.4 µM [inhibitor, single point]
CCn1ncc(CNC(=O)CCCSc2nc(-c3ccco3)cc(C(F)(F)F)n2)c1C | inconclusive: 25.9 µM [inhibitor, single point]
CC1CCCN(CCCNC(=O)c2nn(C)c3c2CSc2ccccc2-3)C1 (centres undefined) | inconclusive: 16.4 µM [activator, partial curve]
O=C(/C=C/Nc1ccccc1F)c1cccs1 | inconclusive: 1.16 µM [activator, partial curve]
COC(=O)C1C(=O)C2=C(CC1C)Nc1ccccc1NC2c1ccc(C)s1 (centres undefined) | inactive
Cc1ccc(C)c2[nH]c(=O)c(CN(CC3CCCO3)C(=O)NC3CCCCC3)cc12 (centres undefined) | active: 8.2 µM
CC1CCN(C(=O)c2[nH]cnc2C(=O)N[C@@H](CCCCNC(=O)OC(C)(C)C)C(=O)OC(C)(C)C)CC1 | inconclusive: 29.1 µM [inhibitor, single point]
Cc1nc(-c2ccccc2)sc1C(=O)Nc1ccccc1F | inactive
COC(=O)c1sccc1NC(=O)CN(C)NS(=O)(=O)c1ccc(Cl)cc1 | inactive
CC(NC(=O)c1ccco1)C1COc2ccccc2O1 (centres undefined) | inconclusive: 23.1 µM [inhibitor, partial curve, poor fit]
CN(CC(=O)Nc1ccc(F)cc1)C(=O)COC(=O)CN1C(=O)NC2(CCCC2)C1=O | inactive
COc1cccc(N=Cc2nc(-c3ccccc3)oc2OC(C)=O)c1 | inconclusive: 18.3 µM [activator, partial curve, poor fit]
COc1ccc(-c2nnc(OCc3nc4ccccc4n3C)c3ccccc23)cc1 | inconclusive: 29.1 µM [inhibitor, single point]
COc1ccc(C(=O)Oc2ccc(F)cc2C(=O)/C=C/c2ccc(OC)c(OC)c2)cc1 | inconclusive: 29.1 µM [inhibitor, partial curve, poor fit]
COC(=O)c1cc(NC(=S)Nc2cc(Cl)cc(Cl)c2)cc(C(=O)OC)c1 | inconclusive: 29.1 µM [inhibitor, single point]
Cc1cc(C)nc(Nc2n[nH]c(-c3ccc(N)cc3)n2)n1 | inconclusive: 3.66 µM [activator, full curve]
CC(=O)Nc1cccc(-c2nnc(-c3ccccc3)o2)c1 | inconclusive: 7.31 µM [activator, partial curve]
CCn1c(SCC(=O)N(C)C2CCCCC2)nc2cc(S(N)(=O)=O)ccc21 | inactive

SMILES | Potency
CSc1ccc(C(=O)N2CCC(CCC(=O)NCc3ccc(F)cc3)CC2)cc1 | inconclusive: 4.11 µM [activator, single point]
CCCC(=O)N1CC(=O)Nc2ccc(C)cc2C1c1ccccc1 (centres undefined) | inactive
CC(c1ccc(F)cc1)n1c(-c2cccs2)n[nH]c1=S (centres undefined) | inactive
CN(C)Cc1c(C(=O)N/N=C/c2ccccc2OCc2c(F)cccc2Cl)nnn1-c1nonc1N | inconclusive: 29.1 µM [inhibitor, single point]
CCNC(=S)N/N=C/c1ccc(OCC(=O)Nc2ccc(C)cc2)cc1 | inconclusive: 4.11 µM [inhibitor, full curve]
Cc1ccc([N+](=O)[O-])cc1N/C=C/C(=O)c1ccco1 | inconclusive: 20.6 µM [activator, partial curve, poor fit]
CCOC(=O)c1csc(NC(C)=O)n1 | inconclusive: 29.1 µM [activator, single point]
O=C(NCc1nc2ccccc2[nH]1)C1=C[C@@H](C2CCCCC2)C[C@@H](OCc2ccc(CO)cc2)O1 | inconclusive: 2.31 µM [inhibitor, full curve, poor fit]
COc1ccc(/C(N)=N/OC(=O)CSc2ccccc2)cc1OC | inconclusive: 16.4 µM [activator, partial curve]
COCCNC(=O)c1cccc(C)c1[N+](=O)[O-] | inconclusive: 16.4 µM [activator, single point]
O=C(NC(=S)NNC(=O)c1ccccc1O)c1ccccc1 | inactive
Cc1cc(CNC(=O)c2ccc3c(c2)OCO3)c2ccccc2n1 | inconclusive: 4.61 µM [inhibitor, full curve]
O=C1N(c2ccccc2)CCN1c1ccccc1 | inconclusive: 6.31 µM [activator, partial curve]
Cc1cccc(C2CC(c3ccccc3)Nc3nc(N)nn32)c1 (centres undefined) | inactive
COc1cc2nc(N3CCN(C(=O)C4COc5ccccc5O4)CC3)nc(N)c2cc1OC (centres undefined) | inconclusive: 16.4 µM [inhibitor, single point]
C/C(Cl)=C\Cn1c(O)c(N=O)c2ccccc21 | inactive
CC(Sc1nnc(-c2cccs2)n1Cc1ccccc1)C(=O)NCc1ccc2c(c1)OCO2 (centres undefined) | inconclusive: 25.9 µM [inhibitor, partial curve]
O=c1c2nnn(Cc3ccccc3)c2ncn1C/C=C/c1ccccc1 | inconclusive: 5.8 µM [inhibitor, partial curve, poor fit]
COc1ccc(C(=O)N/C(=C\c2ccco2)C(=O)NCCN2CCOCC2)cc1 | inactive
O=C(O)c1cccc(Sc2cc(Cl)ccc2C(=O)O)c1 | inconclusive: 14.6 µM [activator, partial curve, poor fit]
CN(C)CCOC(=O)c1ccc2[nH]c3c(c2c1)CSCC3 | inconclusive: 32.6 µM [activator, partial curve, poor fit]
CN(C)CCCN(C(=O)c1sc2ccccc2c1Cl)c1nc2c(F)cccc2s1 | inconclusive: 32.6 µM [activator, partial curve, poor fit]
CC(=O)c1ccc(OCC(=O)NC(=O)NC2CCCCC2)cc1 | inactive

SMILES | Potency
Cc1nn(C(C)C(=O)NCc2ccccc2Cl)c(=O)c2c1sc1ccccc12 (centres undefined) | inactive
NCC(=O)Nc1ccc(Cl)cc1C(=O)c1ccc[nH]1 | inconclusive: 1.83 µM [inhibitor, full curve]
COc1ccc([C@H]2CC(=O)C=C(c3ccc4ncccc4c3)C2)cc1 | inconclusive: 11.6 µM [inhibitor, partial curve]
O=C(O)C1CC=CCC1C(=O)NCc1cn2ccccc2n1 (centres undefined) | inconclusive: 18.4 µM [activator, single point]
O=c1cc(N2CCC3(CC2)OCCO3)[nH]c(=O)n1-c1ccc(Br)cc1 | inconclusive: 20.6 µM [activator, partial curve, poor fit]
Cc1cccc(-c2nnc3n2N=C(c2ccccc2)CS3)c1 | inactive
CCOc1ccc2nc(N3CCC(C(=O)N4CCN(C5CCCCC5)CC4)CC3)sc2c1 | inconclusive: 29.1 µM [activator, single point]
Cc1cc(/C=C2\SC(=S)N(C)C2=O)c(C)n1-c1cccc(O)c1 | inconclusive: 4.61 µM [activator, partial curve]
Cc1ccc(Nc2nc(N)nc(CC#N)n2)cc1 | inconclusive: 14.6 µM [activator, partial curve]
CCN(CC(=O)NCc1cccs1)c1ccc(S(=O)(=O)N2CCCC2)cn1 | inactive
O=c1oc2ccc(NS(=O)(=O)c3cccc4cccnc34)cc2s1 | inactive
CC(=O)c1c(C)[nH]c(C(=O)CSc2nc3ccccc3n2C)c1C | inconclusive: 9.2 µM [inhibitor, partial curve]
N#CC1=C(N)NC(SCc2ccccc2)=C(C#N)C12CCCCC2 | inconclusive: 18.4 µM [inhibitor, single point]
CC(CCc1ccco1)NC(=O)c1cc2c(-c3ccccc3F)nn(C)c2s1 (centres undefined) | active: 16.4 µM
CC1=C(/C=C/C(=O)O)C(C)(C)CCC1 | inactive
Cc1ccc(-c2csc(NC(=O)CSc3nnc4c(n3)[nH]c3ccccc34)n2)cc1 | inconclusive: 9.2 µM [inhibitor, partial curve, poor fit]
O=C(NCc1ccccc1)c1cnc(-c2ccccn2)nc1C(F)(F)F | inconclusive: 18.4 µM [activator, partial curve, poor fit]
Cc1ccc(Nc2nc(-c3ccc(F)cc3)cs2)nc1 | inconclusive: 4.11 µM [activator, partial curve]
Cc1ccsc1/C=N/N=C1\C(=O)Nc2ccccc21 | inconclusive: 11.6 µM [activator, partial curve, poor fit]
Cc1ccn2c(-c3csc(NCc4ccccc4)n3)c(C)nc2c1 | inconclusive: 29.1 µM [inhibitor, single point]
Cc1cccc(OCC(=O)N/N=C/c2cccn2C)c1 | inactive
CCCCOC(=O)C1CCCC(C)N1 (centres undefined) | inconclusive: 18.4 µM [activator, partial curve, poor fit]
CCOc1ccccc1CNC(=O)c1cc2oc3ccccc3c2n1CC | inconclusive: 16.4 µM [activator, single point]

Source: PubChem BioAssay AID504467 (National Center for Advancing Translational Sciences (NCATS), 2011)
